Consider 13 compounds from PubChem BioAssay AID330 (DTP/NCI, 2004).

For this test, the system named is P388 leukemia ip, CD2F1 mice, survival T/C. In words: NCI In Vivo Anticancer Drug Screen. Data for tumor model P388 Leukemia (intraperitoneal) in CD2F1 (CDF1) mice. Particulars: T/C endpoint: median survival time, higher T/C = longer survival.
The mark [1] stands for this setting: dose: 400.0 mg/kg/injection, schedule: Q01DX009 (ip), vehicle: suspension in saline.
Setting [2] is: dose: 100.0 mg/kg/injection, schedule: Q01DX009 (ip), vehicle: saline.
Where [3] appears, read: dose: 200.0 mg/kg/injection, schedule: Q01DX005 (ip), vehicle: saline with Tween-80.

The list does not hold the whole screen: it is rich in T/C values a quarter to a half above the control, in often repeated tests (any T/C) and in doses without a T/C. Further doses and runs are listed elsewhere. T/C is the treated group as % of the vehicle group. Some doses have a count of surviving animals in place of a T/C: the source holds a T/C of zero for them, seemingly a mark for toxic or unscored doses. Some survivor counts are full or nearly so, which does not show that the dose was tolerated: the source hardly ever lists a survival T/C far under the control, and the zero likely stands for such cases as well. Counts of survivors are from the toxicity check (mostly the fifth day) where no day follows; animals may have died later. Schedule codes are those of the source, read here as Q, the interval in days (D) or hours (H), X, the number of doses. Some entries were tested several times; the results are listed from low to high. Where survival is the endpoint, this PubChem deposit counts one and a half times the control or more as active, and values a quarter to a half above the control carry no call in these data; other NCI protocols may use other cut-offs. Some T/C values carry the count of animals alive at the toxicity check (mostly the fifth day); without a count, all were alive then.

Take `CCCCCCCCCCCCCCCCOP(=O)(O)OCCCCCCCCCCCCCCCC`: for the setting “dose: 400.0 mg/kg/injection, schedule: Q04DX003 (ip), vehicle: saline with Tween-80”, the survivor count is reported as 6 of 6.
With `C[Si](C)(CCl)N[Si](C)(C)CCl`, the T/C under setting [1] was 126 % of control [5 of 6 alive]. Moreover, the survivor count (dose: 600.0 mg/kg/injection, schedule: Q01DX009 (ip), vehicle: saline with Tween-80) is on record as 0 of 6.
Take `COC(=O)c1nc(N)nc(C(=O)OC)c1C(=O)c1cc(Cl)ccc1Cl`: the survivor count (dose: 240.0 mg/kg/injection, schedule: Q01DX005 (ip), vehicle: saline with Tween-80) is listed as 0 of 6.
In the case of `Cc1cn(C2CC3[O][Sn]([c]4ccccc4)([c]4ccccc4)[O]CC3O2)c(=O)[nH]c1=O` (configuration not stated), the T/C reads like this: (dose: 50.0 mg/kg/injection, schedule: Q01DX009 (ip), vehicle: saline) 130 % of control; (dose: 50.0 mg/kg/injection, schedule: Q01DX009 (ip), vehicle: suspension in saline) 131 % of control; (dose: 100.0 mg/kg/injection, schedule: Q01DX009 (ip), vehicle: suspension in saline) 127 % of control [5 of 6 alive]. The survivor count is on record as 3 of 6 under setting [2]; 3 of 6 (dose: 200.0 mg/kg/injection, schedule: Q01DX009 (ip), vehicle: suspension in saline); 0 of 6 under setting [1].
As for `Cc1cc(NCCCN(C)C)c2cc3ccc4cccc5ccc(c2n1)c3c45`, the survivor count (dose: 200.0 mg/kg/injection, schedule: Q01DX009 (ip), vehicle: saline with Tween-80) is reported as 0 of 6.
Turning to `Oc1ccc2c(c1)[C@]13CCCCC1[C@H](C2)N(Cc1ccoc1)CC3` (some centres not stated), the survivor count is recorded as 2 of 6 under setting [2] and 0 of 6 (dose: 200.0 mg/kg/injection, schedule: Q01DX009 (ip), vehicle: saline).
Take `COc1ccc2ncc(COC(=O)NCCCl)c(COC(=O)NCCCl)c2c1`: the survivor count (dose: 50.0 mg/kg/injection, schedule: Q01DX005 (ip), vehicle: Klucel (hydroxypropylcellulose) (HPC)) is reported as 6 of 6.
On to `CC(C)CC(C(=O)O)N1C(=O)C=CC1=O` (configuration not stated), for which the survivor count is 1 of 6 and 3 of 6 (dose: 50.0 mg/kg/injection, schedule: Q01DX009 (ip), vehicle: Klucel (hydroxypropylcellulose) (HPC)); 1 of 6 (dose: 100.0 mg/kg/injection, schedule: Q01DX009 (ip), vehicle: Klucel (hydroxypropylcellulose) (HPC)); 0 of 6 (dose: 200.0 mg/kg/injection, schedule: Q01DX009 (ip), vehicle: Klucel (hydroxypropylcellulose) (HPC)).
Turning to `O=C(O)C(O)C(O)C(=O)O.[Co+3].[NH-]CC[NH-].[NH-]CC[NH-].[NH-]CC[NH-]` (configuration not stated), under setting [3], the survivor count is given as 0 of 6.
For `O=c1c2ccccc2sc2cccc(NCCCN3CCN(CCCNc4cccc5sc6ccccc6c(=O)c45)CC3)c12`, the survivor count (dose: 7.25 mg/kg/injection, schedule: Q01DX005 (ip), vehicle: saline with Tween-80) is 6 of 6; the survivor count (dose: 14.5 mg/kg/injection, schedule: Q01DX005 (ip), vehicle: saline with Tween-80) is listed as 6 of 6; the survivor count (dose: 29.0 mg/kg/injection, schedule: Q01DX005 (ip), vehicle: saline with Tween-80) is listed as 6 of 6; the survivor count (dose: 58.0 mg/kg/injection, schedule: Q01DX005 (ip), vehicle: saline with Tween-80) was 6 of 6.
For the compound `CN1C2CCC1C(Br)C=C2c1ccccc1` (configuration not stated), the survivor count runs as follows: (dose: 100.0 mg/kg/injection, schedule: Q01DX005 (ip), vehicle: saline) 0 of 6; (dose: 200.0 mg/kg/injection, schedule: Q01DX005 (ip), vehicle: saline) 0 of 6.
`CS(=O)CCCN=C=S` (configuration not stated): the survivor count is reported as 5 of 6 (dose: 150.0 mg/kg/injection, schedule: Q01DX009 (ip), vehicle: saline with Tween-80) and 0 of 6 (dose: 300.0 mg/kg/injection, schedule: Q01DX009 (ip), vehicle: saline with Tween-80).
On to `CS/C(=C/c1ccc2ccccc2[n+]1C)N1CCSCC1`, for which the survivor count reads like this: (dose: 6.25 mg/kg/injection, schedule: Q01DX005 (ip), vehicle: saline with Tween-80) 2 of 5; (dose: 12.5 mg/kg/injection, schedule: Q01DX005 (ip), vehicle: saline with Tween-80) 0 of 6; (dose: 25.0 mg/kg/injection, schedule: Q01DX005 (ip), vehicle: saline with Tween-80) 0 of 6; (dose: 50.0 mg/kg/injection, schedule: Q01DX005 (ip), vehicle: saline with Tween-80) 0 of 6; (dose: 100.0 mg/kg/injection, schedule: Q01DX005 (ip), vehicle: saline with Tween-80) 0 of 6; under setting [3], 0 of 6.
